Measured values as given in publication PMC9649962, “Early diagnosis of bladder cancer by photoacoustic imaging of tumor-targeted gold nanorods” (Photoacoustics, 2022).
Results are given in words; binding and its absence hold for the method and conditions named.

Protein sequences, listed by entry. Tags and fused reporters are not part of them. Lines headed by an entry give the natural chain unless they say otherwise; changes in a name come on top.
UniProt P08648: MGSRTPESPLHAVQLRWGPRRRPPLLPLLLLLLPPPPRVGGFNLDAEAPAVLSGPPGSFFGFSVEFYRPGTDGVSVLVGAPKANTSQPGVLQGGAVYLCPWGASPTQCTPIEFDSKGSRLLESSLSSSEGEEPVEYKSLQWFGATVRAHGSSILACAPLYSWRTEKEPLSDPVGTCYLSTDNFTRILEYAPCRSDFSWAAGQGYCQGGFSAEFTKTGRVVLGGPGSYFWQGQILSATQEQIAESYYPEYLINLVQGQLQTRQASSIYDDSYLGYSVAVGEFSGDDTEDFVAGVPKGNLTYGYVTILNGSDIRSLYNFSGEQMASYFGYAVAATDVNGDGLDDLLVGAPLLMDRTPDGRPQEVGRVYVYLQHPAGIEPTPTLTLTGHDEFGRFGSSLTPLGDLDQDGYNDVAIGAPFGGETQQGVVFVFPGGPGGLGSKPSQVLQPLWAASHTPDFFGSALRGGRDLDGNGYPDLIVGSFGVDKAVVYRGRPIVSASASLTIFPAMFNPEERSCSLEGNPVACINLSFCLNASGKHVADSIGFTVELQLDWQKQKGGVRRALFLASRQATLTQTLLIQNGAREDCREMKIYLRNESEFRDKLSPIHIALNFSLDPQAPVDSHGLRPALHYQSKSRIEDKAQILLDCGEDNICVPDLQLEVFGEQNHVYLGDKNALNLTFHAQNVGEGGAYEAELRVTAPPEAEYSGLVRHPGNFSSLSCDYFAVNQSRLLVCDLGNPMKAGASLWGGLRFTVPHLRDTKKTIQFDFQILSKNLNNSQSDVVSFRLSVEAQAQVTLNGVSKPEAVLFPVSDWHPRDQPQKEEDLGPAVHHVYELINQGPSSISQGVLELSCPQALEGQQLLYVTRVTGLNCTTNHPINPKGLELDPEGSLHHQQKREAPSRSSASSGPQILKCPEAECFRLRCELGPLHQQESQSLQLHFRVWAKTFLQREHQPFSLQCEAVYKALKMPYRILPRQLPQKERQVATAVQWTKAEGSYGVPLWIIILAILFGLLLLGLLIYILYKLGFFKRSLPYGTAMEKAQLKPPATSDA
UniProt P05556: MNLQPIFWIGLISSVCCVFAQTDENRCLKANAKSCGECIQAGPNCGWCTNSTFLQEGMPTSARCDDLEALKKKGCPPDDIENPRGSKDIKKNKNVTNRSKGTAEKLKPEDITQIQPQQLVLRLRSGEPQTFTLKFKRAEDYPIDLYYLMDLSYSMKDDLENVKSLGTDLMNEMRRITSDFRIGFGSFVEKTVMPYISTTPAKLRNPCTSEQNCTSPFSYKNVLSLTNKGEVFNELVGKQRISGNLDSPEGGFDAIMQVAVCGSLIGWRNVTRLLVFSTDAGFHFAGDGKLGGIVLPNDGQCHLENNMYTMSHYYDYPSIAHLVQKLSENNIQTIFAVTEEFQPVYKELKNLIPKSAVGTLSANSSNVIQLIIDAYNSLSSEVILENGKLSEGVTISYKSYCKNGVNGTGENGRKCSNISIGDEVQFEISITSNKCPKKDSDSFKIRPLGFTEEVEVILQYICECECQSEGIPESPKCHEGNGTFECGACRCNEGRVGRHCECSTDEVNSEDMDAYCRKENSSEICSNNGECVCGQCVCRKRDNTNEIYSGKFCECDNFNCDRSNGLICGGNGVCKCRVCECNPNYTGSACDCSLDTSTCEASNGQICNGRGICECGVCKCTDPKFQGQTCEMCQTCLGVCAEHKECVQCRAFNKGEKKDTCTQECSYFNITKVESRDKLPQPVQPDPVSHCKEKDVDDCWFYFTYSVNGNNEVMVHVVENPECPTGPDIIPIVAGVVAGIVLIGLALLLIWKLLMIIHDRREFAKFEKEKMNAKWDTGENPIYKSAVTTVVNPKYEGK
UniProt P11688: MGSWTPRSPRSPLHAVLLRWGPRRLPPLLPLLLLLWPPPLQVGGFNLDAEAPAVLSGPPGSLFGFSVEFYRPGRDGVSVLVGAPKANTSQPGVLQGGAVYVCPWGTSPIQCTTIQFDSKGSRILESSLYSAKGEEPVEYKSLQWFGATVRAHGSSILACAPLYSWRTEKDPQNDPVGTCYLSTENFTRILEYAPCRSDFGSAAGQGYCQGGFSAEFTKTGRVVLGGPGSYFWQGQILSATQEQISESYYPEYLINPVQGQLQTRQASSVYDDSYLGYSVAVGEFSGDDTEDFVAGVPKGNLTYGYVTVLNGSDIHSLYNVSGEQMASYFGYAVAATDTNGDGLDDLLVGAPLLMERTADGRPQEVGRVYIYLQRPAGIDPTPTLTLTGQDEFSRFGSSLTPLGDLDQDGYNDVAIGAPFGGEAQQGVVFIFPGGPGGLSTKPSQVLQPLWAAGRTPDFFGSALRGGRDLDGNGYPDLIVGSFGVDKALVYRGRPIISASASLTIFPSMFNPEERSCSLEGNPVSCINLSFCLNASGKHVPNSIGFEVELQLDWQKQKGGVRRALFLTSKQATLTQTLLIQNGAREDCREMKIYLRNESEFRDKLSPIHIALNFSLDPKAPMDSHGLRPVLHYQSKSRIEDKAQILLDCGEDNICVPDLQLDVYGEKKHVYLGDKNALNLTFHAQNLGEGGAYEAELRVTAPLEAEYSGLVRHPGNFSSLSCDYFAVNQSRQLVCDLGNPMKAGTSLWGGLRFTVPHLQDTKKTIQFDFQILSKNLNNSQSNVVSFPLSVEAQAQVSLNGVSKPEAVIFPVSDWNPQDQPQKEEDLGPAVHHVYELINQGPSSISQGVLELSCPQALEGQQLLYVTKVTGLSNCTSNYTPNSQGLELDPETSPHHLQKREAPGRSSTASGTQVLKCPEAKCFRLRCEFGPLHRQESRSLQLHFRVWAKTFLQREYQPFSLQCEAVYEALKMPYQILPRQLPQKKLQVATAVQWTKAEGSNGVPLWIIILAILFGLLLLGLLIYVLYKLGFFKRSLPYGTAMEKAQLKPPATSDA
UniProt P09055: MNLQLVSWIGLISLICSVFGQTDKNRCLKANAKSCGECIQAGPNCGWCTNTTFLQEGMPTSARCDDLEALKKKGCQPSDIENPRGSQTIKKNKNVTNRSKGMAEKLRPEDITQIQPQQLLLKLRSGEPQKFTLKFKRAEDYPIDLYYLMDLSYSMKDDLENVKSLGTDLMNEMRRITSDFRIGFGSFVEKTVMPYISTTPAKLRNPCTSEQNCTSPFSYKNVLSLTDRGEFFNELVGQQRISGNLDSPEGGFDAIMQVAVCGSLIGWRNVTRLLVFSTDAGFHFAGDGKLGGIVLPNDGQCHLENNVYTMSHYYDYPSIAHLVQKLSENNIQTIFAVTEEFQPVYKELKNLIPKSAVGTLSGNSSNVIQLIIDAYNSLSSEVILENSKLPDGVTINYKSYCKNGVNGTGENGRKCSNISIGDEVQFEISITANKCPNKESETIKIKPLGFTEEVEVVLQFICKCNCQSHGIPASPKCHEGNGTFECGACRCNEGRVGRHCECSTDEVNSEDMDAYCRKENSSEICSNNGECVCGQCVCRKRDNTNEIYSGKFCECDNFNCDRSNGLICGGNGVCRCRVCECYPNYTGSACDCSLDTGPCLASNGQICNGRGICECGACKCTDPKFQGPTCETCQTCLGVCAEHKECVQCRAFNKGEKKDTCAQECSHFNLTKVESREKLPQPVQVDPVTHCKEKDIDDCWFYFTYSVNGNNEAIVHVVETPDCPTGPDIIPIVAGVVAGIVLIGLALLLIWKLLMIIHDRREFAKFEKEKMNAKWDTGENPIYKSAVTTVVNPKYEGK

Experiments:
[1] = target: T1, α5β1 integrin on human bladder cancer 5637 cells (human (endogenous in 5637)) (UniProt P08648+P05556); assay: fluorescence microscopy of Qdot bound to living cells (Cellomics ArrayScan); living 5637 cells grown in 96-well plates, Iso4-Qdot or ARA-Qdot 30 nM in binding buffer-1, 2 h at 37 °C, 5% CO2; washed, fixed; only the binder purified
[2] = target: α5β1 integrin on murine bladder cancer MB49-Luc cells (mouse (endogenous in MB49-Luc)) (UniProt P11688+P09055); assay: flow cytometry on cells; detached MB49-Luc or 5637 cells with Iso4- or ARA-Qdot (30–0 nM) in 25 mM Hepes pH 7.4, 150 mM sodium chloride, 1 mM magnesium chloride, 1 mM manganese chloride, 1% BSA, 2 h at 37 °C; washed, fixed; only the binder purified
[3] = target: T1, α5β1 integrin on human bladder cancer 5637 cells (human (endogenous in 5637)); assay: as above

Measured: binding

CGARAG (head-to-tail cyclized; coupled to Qdot605 ITK Amino PEG nanoparticles) [ARA-Qdot (ARA, c(CGARAG), coupled to Qdot605 ITK Amino PEG quantum dots)]
no binding (tested: 30 nM): all assays above
